The values below come from patent publication US20040053234A1, “Polynucletides that control delta-6 desaturase genes and methods for identifying compounds for modulating delta-6 desaturase” (priority 2000, published 2004).

The test system of data set [1] is spheroplasts of transformed Saccharomyces cerevisiae. Kind of data set: O.D.600 and substrate radioactivity recovered in spheroplasts (cytotoxicity, uptake). The class given is cell-based. As to conditions: for % of [1-14C]-ALA Recovered in Cells: hD6D-1 spheroplasts; for % of [1-14C]-LA Recovered in Cells: rD6D-1 spheroplasts. An excerpt:
Total lipids were extracted as described below.

In data set [2] the test system is whole cells of transformed Saccharomyces cerevisiae. The experiment in a line: O.D.600 and substrate radioactivity recovered in whole yeast cells. As to conditions: hD6D-1 whole cells. The protocol: Transformed Saccharomyces cerevisiae pTh5002.1 with V5/6xHis tags were incubated in a 125 ml Erlenmeyer flask containing 9 ml of modified SC-U medium with 1% tergitol (O.D.6000.4, approximately 3.2×10^6 cells) and 200 μl of 7, 14 or 28 mM n-propyl gallate in ethanol. After 1 h incubation in an orbital incubator at 270 rpm and 30° C., 1 μCi of potassium salts of [1-^14C]-linoleic or [1-^14C]-alpha-linolenic acids (dissolved in modified SC-U medium and 1% tergitol) were added to the cell suspension to a final concentration of 2 μM. After 5 h incubation with the inhibitor, cells reached the log phase and the transgene expression was induced with the addition of 1 ml of galactose to a final concentration of 2%.

Each structure is given as a SMILES string.

Take `CCCOC(=O)c1cc(O)c(O)c(O)c1` [n-propyl gallate, Propyl ester of 3,4,5-trihydroxybenzoic acid]: the “% of [1-14C]-ALA Recovered in Cells” value in data set [1] (inhibitor 0.7 mM) worked out at 46.5%; in data set [1] (inhibitor 1.4 mM), 36.3%; in data set [1] (inhibitor 2.8 mM) it was 39.0%; in data set [1] (inhibitor 5.6 mM) it was 34.9%; in data set [1] (inhibitor 14.1 mM), 17.6%; in data set [2] (inhibitor 7 mM) it was 2.3%. Also, the “% of [1-14C]-ALA Recovered in Cells” value in data set [2] (inhibitor 14 mM) came to 2.4%. Further, the “% of [1-14C]-LA Recovered in Cells” value in data set [1] (inhibitor 0.7 mM) is recorded as 13.6%; in data set [1] (inhibitor 1.4 mM), 16.7%; in data set [1] (inhibitor 2.8 mM), 16.1%; in data set [1] (inhibitor 5.6 mM), 14.8%; in data set [1] (inhibitor 14.1 mM), 5.1%.
